Drawing on BindingDB's records for patent US9144538 (The Procter & Gamble, 2015), this text covers IC50 for one molecule.

Amino acid sequences for entries named in this document (tags omitted).
UniProt P08684, whole entry: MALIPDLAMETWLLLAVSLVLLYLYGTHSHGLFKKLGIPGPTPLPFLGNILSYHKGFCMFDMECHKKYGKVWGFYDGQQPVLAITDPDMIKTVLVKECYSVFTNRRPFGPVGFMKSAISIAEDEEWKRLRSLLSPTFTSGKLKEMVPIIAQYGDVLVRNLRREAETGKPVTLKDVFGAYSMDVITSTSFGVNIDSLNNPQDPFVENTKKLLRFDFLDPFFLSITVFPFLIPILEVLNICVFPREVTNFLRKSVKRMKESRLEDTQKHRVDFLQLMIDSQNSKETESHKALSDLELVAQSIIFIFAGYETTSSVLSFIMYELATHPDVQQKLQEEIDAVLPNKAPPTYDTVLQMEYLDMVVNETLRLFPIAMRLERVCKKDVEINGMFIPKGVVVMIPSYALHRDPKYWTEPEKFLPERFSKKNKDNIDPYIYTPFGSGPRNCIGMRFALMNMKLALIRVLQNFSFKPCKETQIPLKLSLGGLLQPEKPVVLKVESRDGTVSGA

The target in the data set is CYP3A4 (Homo sapiens, UniProt P08684). Briefly: In vitro CYP3A4 Inhibition Assay. The source says:
Cytochrome P450 is a large and diverse group of enzymes that catalyze the oxidation of organic substances. […] Applicant evaluated the potential RAMBA activity of several azoles using pig liver microsomes, a rich source of CYP activity, comprising many different CYP 450 isoforms. […] As understanding in this area has progressed, a more specific CYP inhibition assay can be used to provide better predictivity of activity in human skin. Nevertheless, this assay may still be used as a general predictor of overall CYP activity.

In general, IC50 refers to the concentration at which inhibition is half-maximal. A high value points to weaker potency in that assay.

In the case of `Clc1ccc(CO[C@@H](Cn2ccnc2)c2ccc(Cl)cc2Cl)c(Cl)c1` [US9144538, Miconazole Nitrate], the IC50 was 5 µM.
